According to article PMC11479228:

molecular target: PmACRE1 protein (Avr9/Cf-9 rapidly elicited 1) of Pinus massoniana (Pinus massoniana (endogenous in needles)); assay: affinity purification with mass spectrometry; co-IP: specific anti-PmACRE1 antibody on Protein A/G magnetic beads, incubated overnight at 4 °C with natural soluble proteins of P. massoniana needles collected 3 and 5 days after pine wood nematode infection; eluate on SDS-PAGE, bands digested, HPLC-MS/MS

Binder | binding
photosytem I subunit VII (chloroplast) (protein, UniProt G8IZ81 1-81) MAHSVKIYDTCIGCTQCVRACPTDVLEMIPWEGCKAKQIASAPRTEDCVGCKRCESACPTDFLSVRVYLWHETTRSMGLAY | binds
ATP synthase CF1 beta subunit (protein, UniProt G8IZ48 1-492) MRKNPLVLGVSARVEKNVGRIAQIIGPVLDVSFPPGNMPNIYNSLIVKGQGTAGQEIQVTCEVQQLLGNHKVRAVAMSATDGLTRGMRVIDTGAPLSVPVGGATLGRIFNVLGEPVDNLGPVDARITSPIHRPAPAFTELDTKLSIFETGIKVVDLLAPYRRGGKIGLFGGAGVGKTVLIMELINNIAKAHGGVSVFGGVGERTREGNDLYMEMKESGVIDEQKISESKVALVYGQMNEPPGARMRVGLTALTMAEYFRDVNEQDVLLFIDNIFRFVQAGSEVSALLGRMPSAVGYQPTLSTEMGSLQERITSTKKGSITSIQAVYVPADDLTDPAPATTFAHSDATTVLSRGLAAKGIYPAVDPLDSTSTMLQPWIVGEEHYETAQGVKQTLQRYKELQDIIAIPGLDELSEEDRLIVARARKIERFLSQPFFVAEVFTGSPGKYVGLMETIRGFQMILSGELDGLIEQSFYLVGNIDEATAKAINSNMES | binds
hypothetical chloroplast RF68 (chloroplast) [Pinus massoniana] (protein, UniProt R4L001 1-75) MAYSSCLFEPGFGTELILRRIDGAIQVRSNTDPTFYSFVDLGGPGVPVVIHLGSSLLENPYIPYQCMDGYLSGTG | binds

Continued, values first:

binding | Binder
binds | ribosomal protein S11 (chloroplast) [Pinus massoniana] (protein, UniProt G8IZ58 1-130) MSKTIKRIGSRRNEHRVLKGVIYVQASFNNTIVTATDVRGQVISWSSAGACGFKGTRRGTPFAAQTAAENVIRALMDRGMERVEVMISGPGRGRDTALRTIRRSGILLSFVRDVTPMPHNGCRPPKKRRV
binds | ribosomal protein L2 (chloroplast) [Pinus massoniana] (protein, UniProt G8IZ67 1-276) MAIRSYRILTPDTRNRSVSGFDGRVQLDPQKKLTSGQHHCGKGRNGRGIITARHRGGGHKRLYRQIDFRRNKEHISGEIVTIEYDPNRSAYICKVHYKNGDKMYILHPRGVMIGDTILSGPKAPISIGNALPLTNMPLGTAIHNIEITLGKGGQLARAAGAVAELIAKEDRSATLRLPSGEVRLISENCSATIGQVGNITANNRSFGKAGAKRWLGKRSEVRGVAMNPVDHPHGGGEGRTPIGRKKPVTPWGYSALGKKSRKRNRYSDASILRRRE
binds | ATP synthase CF1 epsilon subunit (chloroplast) [Pinus massoniana] (protein, UniProt G8IZ49 1-137) MTLNLRVLSPNRVIWDSEVKEIILSTNSGQIGVLPNHASLVAAVDIGVMKIRLNGQWSTMAMMGGFAKIDSDRITILVNNAERDVDIDPQEAQENFRIAKADLARAEGKRQAIEADLALKRARTRLEAINASPPVSN
binds | cytochrome b6 (chloroplast) [Pinus massoniana] (protein, UniProt G8IZ55 1-215) MGKVYDRFEERLEIQAIADDITSKYVPPHVNIFYCLGGITLTCFLVQVATGFAMTFYYRPTVTEAFASVQYLMTEVNFGWLIRSIHRWSASMMVLMMILHVFRVYLTGGFKKPRELTWVTGVILAVLTVSFGVTGYSLPWDQIGYWAVKIVTGVPEAIPVIGSPLVELLRGSVSVGQSTLTRFYSLHTFILPLLTAVFMPMHFLMIRKQGIPGPL

No constants are given. Whether binding was seen depends on the method and setting. Binding seen in cells or lysates may run through a third protein. These calls come from enrichment with a bait or labelling near it, and not all partners need be listed.
